In patent publication US20250060359A1, “FUSION PROTEINS AND METHODS FOR MONITORING FIBRONECTIN MATRIX ASSEMBLY” (The Trustees of Princeton University, priority 2023, published 2025) one finds binding data, which are given here for 23 molecules.

Sequences of proteins named here, by UniProt entry; tags and fusion partners are left off. Residues count along the entry.
UniProt P02751, residues 32-608: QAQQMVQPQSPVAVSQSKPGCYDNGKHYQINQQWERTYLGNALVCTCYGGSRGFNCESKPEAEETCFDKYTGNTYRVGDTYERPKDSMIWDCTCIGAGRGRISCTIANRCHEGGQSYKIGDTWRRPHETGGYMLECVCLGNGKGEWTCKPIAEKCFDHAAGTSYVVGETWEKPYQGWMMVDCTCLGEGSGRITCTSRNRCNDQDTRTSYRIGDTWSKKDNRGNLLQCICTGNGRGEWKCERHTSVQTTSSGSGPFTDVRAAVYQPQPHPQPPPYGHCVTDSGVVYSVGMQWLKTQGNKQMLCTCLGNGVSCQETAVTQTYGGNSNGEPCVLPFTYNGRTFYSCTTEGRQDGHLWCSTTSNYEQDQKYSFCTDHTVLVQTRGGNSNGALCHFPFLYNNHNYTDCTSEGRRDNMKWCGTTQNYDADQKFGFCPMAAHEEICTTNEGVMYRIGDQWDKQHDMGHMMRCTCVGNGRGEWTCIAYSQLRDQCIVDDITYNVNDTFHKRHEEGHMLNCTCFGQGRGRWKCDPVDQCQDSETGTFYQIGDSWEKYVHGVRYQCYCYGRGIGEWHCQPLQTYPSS
UniProt P11276, residues 33-2477: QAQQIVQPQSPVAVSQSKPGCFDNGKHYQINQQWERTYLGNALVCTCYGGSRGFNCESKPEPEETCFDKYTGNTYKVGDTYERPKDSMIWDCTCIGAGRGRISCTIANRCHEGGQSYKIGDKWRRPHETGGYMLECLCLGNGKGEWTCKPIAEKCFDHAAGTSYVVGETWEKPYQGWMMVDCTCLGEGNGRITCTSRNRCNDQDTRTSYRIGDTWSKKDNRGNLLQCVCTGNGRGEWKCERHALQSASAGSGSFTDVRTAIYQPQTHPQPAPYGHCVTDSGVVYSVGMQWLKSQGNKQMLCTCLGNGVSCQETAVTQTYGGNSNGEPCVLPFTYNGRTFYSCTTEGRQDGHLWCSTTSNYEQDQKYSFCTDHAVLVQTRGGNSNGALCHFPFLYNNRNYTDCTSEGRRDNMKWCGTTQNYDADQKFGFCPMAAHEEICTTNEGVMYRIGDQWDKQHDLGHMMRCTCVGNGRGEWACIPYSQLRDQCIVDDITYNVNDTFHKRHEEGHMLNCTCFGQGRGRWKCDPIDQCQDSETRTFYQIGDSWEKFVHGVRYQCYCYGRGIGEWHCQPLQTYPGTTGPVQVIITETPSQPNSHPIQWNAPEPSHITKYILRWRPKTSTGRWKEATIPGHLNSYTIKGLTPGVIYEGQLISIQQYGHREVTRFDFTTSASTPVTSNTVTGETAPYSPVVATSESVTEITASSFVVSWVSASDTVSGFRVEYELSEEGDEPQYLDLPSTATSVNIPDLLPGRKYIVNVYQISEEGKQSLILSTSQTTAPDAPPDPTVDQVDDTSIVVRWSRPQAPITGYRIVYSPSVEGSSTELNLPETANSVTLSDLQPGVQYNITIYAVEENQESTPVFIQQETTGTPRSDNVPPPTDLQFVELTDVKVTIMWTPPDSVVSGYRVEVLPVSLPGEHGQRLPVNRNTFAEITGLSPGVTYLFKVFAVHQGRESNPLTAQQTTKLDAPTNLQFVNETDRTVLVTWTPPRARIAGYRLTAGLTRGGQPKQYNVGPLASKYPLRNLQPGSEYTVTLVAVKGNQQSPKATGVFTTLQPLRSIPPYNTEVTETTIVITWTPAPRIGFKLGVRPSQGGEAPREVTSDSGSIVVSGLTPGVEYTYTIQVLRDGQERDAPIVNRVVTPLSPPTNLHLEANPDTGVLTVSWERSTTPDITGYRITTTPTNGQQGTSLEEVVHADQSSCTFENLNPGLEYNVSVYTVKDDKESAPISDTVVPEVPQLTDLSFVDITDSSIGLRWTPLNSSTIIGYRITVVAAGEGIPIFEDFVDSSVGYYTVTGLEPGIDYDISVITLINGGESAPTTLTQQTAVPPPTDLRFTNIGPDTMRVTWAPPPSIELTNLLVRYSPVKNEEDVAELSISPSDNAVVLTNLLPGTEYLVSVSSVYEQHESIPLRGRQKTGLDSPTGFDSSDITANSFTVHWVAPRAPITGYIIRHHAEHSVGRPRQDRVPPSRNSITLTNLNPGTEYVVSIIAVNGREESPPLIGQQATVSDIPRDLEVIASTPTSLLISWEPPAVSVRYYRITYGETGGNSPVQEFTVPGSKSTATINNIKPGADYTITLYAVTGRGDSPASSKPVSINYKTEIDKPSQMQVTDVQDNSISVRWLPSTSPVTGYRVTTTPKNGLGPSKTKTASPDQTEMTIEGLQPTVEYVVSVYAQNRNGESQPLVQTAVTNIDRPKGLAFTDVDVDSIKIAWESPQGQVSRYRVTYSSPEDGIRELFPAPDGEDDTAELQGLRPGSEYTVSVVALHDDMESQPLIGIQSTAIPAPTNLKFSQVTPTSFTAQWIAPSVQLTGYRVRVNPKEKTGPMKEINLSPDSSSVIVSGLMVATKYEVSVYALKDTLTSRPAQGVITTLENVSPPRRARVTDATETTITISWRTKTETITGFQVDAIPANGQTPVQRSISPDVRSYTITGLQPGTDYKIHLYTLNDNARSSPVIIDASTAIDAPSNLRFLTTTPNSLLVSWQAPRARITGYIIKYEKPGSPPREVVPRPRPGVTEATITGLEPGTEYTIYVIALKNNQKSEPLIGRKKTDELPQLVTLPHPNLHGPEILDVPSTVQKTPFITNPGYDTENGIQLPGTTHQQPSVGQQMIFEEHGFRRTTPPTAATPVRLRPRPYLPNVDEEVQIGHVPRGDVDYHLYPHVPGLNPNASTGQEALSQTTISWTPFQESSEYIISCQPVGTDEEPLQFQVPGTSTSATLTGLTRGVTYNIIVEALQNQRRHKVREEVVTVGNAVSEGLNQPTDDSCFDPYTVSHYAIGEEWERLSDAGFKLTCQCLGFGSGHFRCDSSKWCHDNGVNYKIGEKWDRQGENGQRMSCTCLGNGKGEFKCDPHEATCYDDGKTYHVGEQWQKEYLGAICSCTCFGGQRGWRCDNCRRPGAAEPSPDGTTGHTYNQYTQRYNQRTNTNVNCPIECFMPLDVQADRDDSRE

Assay [1] deals with Recombinant human 70kD protein (N-terminal 70kD fragment of fibronectin) (human) (UniProt P02751). The assay is described as follows: phage ELISA on 70kD-coated plastic; + is mean signal higher than 3x negative control. (ELISA stands for enzyme-linked immunosorbent assay.)
Substrate in assay [2]: FN matrix (fibronectin fibrils) assembled by NIH 3T3 fibroblasts (UniProt P11276)
The experiment in a line: phage incubated with fibroblasts as they assembled fibrils.

Substrate in assay [3]: FN matrix (fibronectin fibrils) assembled by NIH 3T3 fibroblasts (UniProt P11276)
The experiment in a line: high concentration phage stock incubated with fibroblast monolayers, co-stained for phage and FN.

Substrate in assay [4]: FN matrix (fibronectin fibrils) assembled by NIH 3T3 fibroblasts (UniProt P11276)
The assay is described as follows: phage and FN immunofluorescence on fibroblast monolayers (Matrix Binding column).

Substrate in assay [5]: FN matrix (fibronectin fibrils) assembled by NIH 3T3 fibroblasts (UniProt P11276)
The experiment in a line: phage incubated with NIH 3T3 fibroblasts, stained for FN and phage (FIGS. 4A-4C).

Substrate in assay [6]: FN matrix (fibronectin fibrils) assembled by NIH 3T3 fibroblasts (UniProt P11276)
The experiment in a line: fixed confluent NIH 3T3 fibroblasts incubated with phage, co-stained for M13 phage and FN.

Substrate in assay [7]: FN matrix (fibronectin fibrils) assembled by NIH 3T3 fibroblasts (UniProt P11276)
The experiment in a line: phage characterization on FN matrix.

Results are given in words; binding and its absence hold for the method and conditions named. Some entries that bind do so weakly or less than the wild type.

In the case of NHVALWGTGTAS (peptide, not shown: large carriers) [M13 phage clone 3 (3, 5, 27, 28) displaying … (S3)], the binding result in assay [1] is recorded as “binds”.
On to DHIQLSGASYFN (peptide, not shown: large carriers) [M13 phage clone 13 (13, 30, 40) displaying …], for which, in assay [1], the binding result was “binds”.
On the same count and under the same terms, next, DHIDVMGFTVFK (peptide, not shown: large carriers) [M13 phage clone 34 displaying …]: “binds”.
Consider DYSYFDLWYSDT (peptide, not shown: large carriers) [M13 phage clone 12 (12, 29) displaying …], for which the binding entry in assay [2], in assay [1], in assay [3] and in assay [4] was “binds” throughout.
As for YSTTMWQYLPGA (peptide, not shown: large carriers) [M13 phage clone 39 displaying …], the binding result in assay [2], in assay [1] and in assay [4] was “binds” in each case.
With SDITPWWLLAQD (peptide, not shown: large carriers) [M13 phage clone 20 (20, 21, 46) displaying … (S20)], in assay [1], the binding entry is “binds”.
The same measure, in the same setting: next, LETDWRSLSHMS (peptide, not shown: large carriers) [M13 phage clone 26 displaying …]: “binds”.
With GSYDWTKLPGLE (peptide, not shown: large carriers) [M13 phage clone 2 (2, 16, 31, 48) displaying … (S2)], the binding entry in assay [5], in assay [2], in assay [1], in assay [3], in assay [6] and in assay [7] was “binds” in each case. In assay [4], the binding entry was “binds”.
Take YVTNWGSLSGSY (peptide, not shown: large carriers) [M13 phage clone 23 displaying …]: the binding result in assay [1] is “binds”.
With HHIALSGSNSFG (peptide, not shown: large carriers) [M13 phage clone 14 displaying …], in assay [1], the binding entry was “binds”.
With VSGYNVMPLNGD (peptide, not shown: large carriers) [M13 phage clone 1 displaying …], in assay [1], the binding entry is listed as “binds”.
Take AHBRLSGSAPMF (peptide, not shown: large carriers) [M13 phage clone 7 (7, 22, 38) displaying AHB…]: in assay [1], the binding entry is “binds”.
Same read-out and setting: next, WHVALTGNNLER (peptide, not shown: large carriers) [M13 phage clone 37 displaying …]: “binds”; DHVSLSGRSAAM (peptide, not shown: large carriers) [M13 phage clone 11 displaying …]: “binds”; HITNWLSLSSYE (peptide, not shown: large carriers) [M13 phage clone 8 displaying …]: “binds”.
The same measure, in the same setting: the entry for HNQTMWWTFPST (peptide, not shown: large carriers) [M13 phage clone 4 (4, 44) displaying …] is “binds”; for HQTYWMNLPGSY (peptide, not shown: large carriers) [M13 phage clone 15 (15, 18) displaying …] it is “binds”; for HWSGTHALSGRA (peptide, not shown: large carriers) [M13 phage clone 9 (9, 42) displaying …] it is “binds”.
Same read-out and setting: the entry for SITEFNLLPGLW (peptide, not shown: large carriers) [M13 phage clone 6 (6, 35) displaying …] is “binds”.
Turning to DHIPLRGQRVWQ (peptide, not shown: large carriers) [M13 phage clone 19 (19, 24, 32, 41, 45) displaying …], in assay [1], the binding entry was “binds”.
With DHSALRGTWTNR (peptide, not shown: large carriers) [M13 phage clone 17 displaying …], the binding result in assay [1] is given as “binds”.
On the same count and under the same terms, the entry for NHVPLSGFSRTP (peptide, not shown: large carriers) [M13 phage clone 47 displaying …] is “binds”.
Same read-out and setting: next, HPTDWMNLPALS (peptide, not shown: large carriers) [M13 phage clone 36 displaying …]: “binds”.
